PubChem BioAssay AID652243 – Drosophila RNAi Screening Center, 2013
Assay: 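Fly regulators of androgen-dependent reporter output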 (primary screen). Cell system: Drosophila S2R+ cells. Reagent: long dsRNA against Drosophila genes. Duration: 72 h (48 h, then 24 h hormone). Conditions: synthetic androgen R1881 at 10 nM for 24 h. Detection: 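Per-well raw luminescence of the androgen-driven firefly reporter and of the Renilla control, two replicates each, without normalisation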. Reading the numbers: firefly reporter light: higher = more light from androgen-responsive reporter; Renilla control light: higher = more constitutive control signal (cell number, transfection). Call rule: 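Across duplicate plates, a knock-down whose log firefly/Renilla ratio shifted a set fold down or up from the GFP/LacZ control mean was a hit; the downward cut appears as both 1.5 and 3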. Meaning of the calls: active = hit: reporter lowered or raised; inactive = no hit.
In all, the deposit lists about 24,000 reagents; below is an unselected part of those that have a named target and a result. In the full data, 246 (1%) got an active call. 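Plates not normalised; calls are printed but the firefly/Renilla ratio behind them is not deposited; fold cut for lowering reported inconsistently.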 The raw values are shown without normalisation. Entries without a mark were called inactive. No sequences are given here. Not given: the amount of reagent.

target gene	PubChem SID	firefly reporter light, replicate 1	firefly reporter light, replicate 2	Renilla control light, replicate 1	Renilla control light, replicate 2
CG10747	SID104181896	1.35e5	1.09e5	1.33e6	1.27e6
Gdap1	SID104190229	1.40e5	1.87e5	1.45e6	1.61e6
Gdap1	SID104206830	5.42e5	7.76e5	1.00e6	1.81e6
SMSr	SID104190790	7.78e5	4.91e5	1.24e6	1.32e6
SMSr	SID104190791	1.86e5	1.17e5	1.94e6	1.32e6
Kdm4B	SID104186654	1.11e6	1.31e6	1.14e6	1.21e6
Kdm4B	SID104205246	2.49e5	2.76e5	7.07e5	8.15e5
EMC8-9	SID104184172	5.29e5	4.27e5	1.08e6	8.80e5
CG6628	SID104190471	1.89e5	2.08e5	1.99e6	1.97e6
CG30419	SID104184000	2.69e5	2.74e5	2.35e6	2.37e6
CG30419	SID104184001	3.01e5	3.66e5	2.38e6	2.39e6
CG30419	SID104201965	4.89e5	5.76e5	1.26e6	1.52e6
SelR	SID104195863	1.78e5	2.07e5	2.40e6	3.03e6
MAGE	SID104192296	1.49e5	1.31e5	2.30e6	2.15e6
CG4362	SID104195359	3.25e5	3.19e5	2.58e6	2.61e6
CG17784	SID104195060	1.56e5	2.21e5	3.04e6	2.02e6
Hug	SID104196761	1.82e5	1.52e5	2.12e6	1.77e6
Hug	SID104208293	3.35e5	2.95e5	1.37e6	1.30e6
frm	SID104189545	6.39e5	6.79e5	1.98e6	1.46e6
frm	SID104203916	1.07e6	1.14e6	1.13e6	9.84e5
frm	SID104216622	8.63e5	8.27e5	1.73e6	2.15e6
CG34342	SID104189548	1.92e5	1.38e5	2.59e6	2.06e6
CG34342	SID104201961	4.13e5	7.77e5	4.14e5	6.53e5
CG34342	SID104202995	8.96e5	9.69e5	9.66e5	9.94e5

4 entries from above, arranged by “Renilla control light, replicate 2”, lowest first.
target gene	PubChem SID	firefly reporter light, replicate 1	firefly reporter light, replicate 2	Renilla control light, replicate 1	Renilla control light, replicate 2
CG30419	SID104201965	4.89e5	5.76e5	1.26e6	1.52e6
MAGE	SID104192296	1.49e5	1.31e5	2.30e6	2.15e6
CG30419	SID104184001	3.01e5	3.66e5	2.38e6	2.39e6
SelR	SID104195863	1.78e5	2.07e5	2.40e6	3.03e6
